Source: patent publication US20060234909A1 (priority 2003, published 2006)

Legend:
[1] = general procedure: Fmoc solid-phase peptide synthesis; Wang resin (4-alkoxybenzyl alcohol resin); 2-Cl-trityl resin
[2] = general procedure: Fmoc solid-phase peptide synthesis; Fmoc-Lys(Z)-Wang resin; details: whole synthesis, scale 0.25 mmol
[3] = general procedure: Fmoc solid-phase peptide synthesis; Fmoc-Arg(pbf)-Wang resin; details: whole synthesis, scale 0.25 mmol
[4] = general procedure: Fmoc solid-phase peptide synthesis; Fmoc-Gly-Wang resin; details: whole synthesis, scale 0.25 mmol
[5] = general procedure: Fmoc solid-phase peptide synthesis; H-Lys(Boc)-2-Cl-trityl resin; details: whole synthesis, scale 0.25 mmol
[6] = whole synthesis, scale of the general procedure 0.25 mmol

Substance: Ac-E(Bzl)YIYGSFK(CBz)-PEG(13)-10Ca-PXL (EYIYGSFK)
- final purity (method not given) ([1]; conjugation step): 90%

Substance: Ac-E(OBz1)YIYGSFK(Z)-OH
- final purity (method not given) [1, 6]: >95%
- isolated yield [1, 6]: 26.7%
- isolated mass [2]: an average 85 mg

Substance: Ac-EYIFGSFK-PEG(13)-10Ca-PXL x TFA (N-acetyl, PEG13, paclitaxel conjugate)
- final purity (method not given) ([1]; conjugation step, TFA): 94%

Substance: Ac-EYIYGSFK(CBz)-PEG(13)-10Ca-PXL (N-acetyl, CBz, PEG13, paclitaxel conjugate)
- final purity (method not given) ([1]; conjugation step): 95%

Substance: Ac-EYIYGSFR-PEG(13)-10Ca-PXL (N-acetyl, PEG13, paclitaxel conjugate)
- final purity (method not given) ([1]; conjugation step): 88%

Substance: Ac-RPRTSSF-PEG(13)-10Ca-PXL x 2TFA (N-acetyl; PEG(13) linker; paclitaxel conjugate)
- final purity (method not given) ([1]; conjugation step, 2TFA): 98%

Substance: Ac-RSRTSSF-PEG(13)-10Ca-PXL x 2TFA (N-acetyl; PEG(13) linker; paclitaxel conjugate)
- final purity (method not given) ([1]; conjugation step, 2TFA): 99%

Substance: Ac-YIYGSFK-PEG(13)-10Ca-PXL x TFA (N-acetyl; PEG(13) linker; paclitaxel conjugate)
- final purity (method not given) ([1]; conjugation step, TFA): 97%

Substance: Ac-YIYGSFR-PEG(13)-10Ca-PXL x TFA (N-acetyl; PEG(13) linker; paclitaxel conjugate)
- final purity (method not given) ([1]; conjugation step, TFA): 98%

Substance: BOC-RPRTSSF-PEG(13)-10Ca-PXL x 2TFA (N-BOC; PEG(13) linker; paclitaxel conjugate)
- final purity (method not given) ([1]; conjugation step, 2TFA): 98%

Substance: CBz-GIYWHHY-ALK(6)-7Ca-PXL
- final purity (method not given) ([1]; conjugation step): >95%

Substance: CBz-RPRTSSF-PEG(13)-10Ca-PXL x 2TFA (N-CBz; PEG(13) linker; paclitaxel conjugate)
- final purity (method not given) ([1]; conjugation step, 2TFA): 99%

Substance: CBz-YIYGSFK(CBz)-ALK(6)-10Es-PXL (N-CBz; CBz side chain; alkyl linker; paclitaxel conjugate)
- final purity (method not given) ([1]; conjugation step): >95%

Substance: H-GIYWHHY-ALK(5)-7Es-PXL
- final purity (method not given) ([1]; conjugation step): >90%

Substance: H-GIYWHHY-ALK(6)-7Ca-PXL x HCl
- final purity (method not given) ([1]; conjugation step, HCl): >90%

Substance: H-YIYGSFK-ALK(6)-10Es-PXL x 2 HCl (alkyl linker; paclitaxel ester conjugate)
- final purity (method not given) ([1]; conjugation step, 2 HCl): >95%

Substance: HO—RFSGYIY—NHPv
- final purity (method not given) [1, 6]: >95%
- isolated yield [1, 6]: 60.7%
- isolated mass [3]: an average 150 mg

Substance: Pv-ARDIKYD-PEG(13)-10Ca-PXL x 2TFA
- final purity (method not given) ([1]; conjugation step, 2TFA): 94%

Substance: Pv-E(Bzl)YIYGSFK(CBz)-PEG(13)-10Ca-PXL x TFA (EYIYGSFK)
- final purity (method not given) ([1]; conjugation step, TFA): 95%

Substance: Pv-EYIYGSFR-PEG(13)-10Ca-PXL (N-terminal Pv, PEG(13) linker, paclitaxel conjugate)
- final purity (method not given) ([1]; conjugation step): 98%

Substance: Pv-GRPRAAAFAEG-PEG(13)-10Ca-PXL x 2TFA (N-terminal Pv, PEG(13) linker, paclitaxel conjugate)
- final purity (method not given) ([1]; conjugation step, 2TFA): 95%

Substance: Pv-GRPRTSSFAE(Bzl)G-PEG(13)-10Ca-PXL x 2TFA (GRPRTSSFAEG)
- final purity (method not given) ([1]; conjugation step, 2TFA): 95%

Substance: Pv-GRPRTSSFAE(OBz1)G-OH
- final purity (method not given) [1, 6]: >95%
- isolated yield [1, 6]: 26.0%
- isolated mass [4]: 87 mg

Substance: Pv-GRPRTSSFAE(Odmab)G-OH
- final purity (method not given) [1, 6]: 90%
- isolated yield [1, 6]: 12.6%
- isolated mass [4]: 49 mg

Substance: Pv-GRSRTSSFAEG-PEG(13)-10Ca-PXL x 2TFA (N-terminal Pv, PEG(13) linker, paclitaxel conjugate)
- final purity (method not given) ([1]; conjugation step, 2TFA): 99%

Substance: Pv-RLVAYE(Bzl)GYV-PEG(13)-10Ca-PXL x TFA
- final purity (method not given) ([1]; conjugation step, TFA): 99%

Substance: Pv-RLVAYEGYV-PEG(13)-10Ca-PXL (N-terminal Pv, PEG(13) linker, paclitaxel conjugate)
- final purity (method not given) ([1]; conjugation step): 95%

Substance: Pv-RSRKESY-PEG(13)-10Ca-PXL x 2TFA (N-terminal Pv, PEG(13) linker, paclitaxel conjugate)
- final purity (method not given) ([1]; conjugation step, 2TFA): 99%

Substance: Pv-RSRTSSFAEG-PEG(13)-10Ca-PXL x 2TFA (N-terminal Pv, PEG(13) linker, paclitaxel conjugate)
- final purity (method not given) ([1]; conjugation step, 2TFA): 93%

Substance: Pv-YIFGSFR-PEG(13)-10Ca-PXL x TFA (N-terminal Pv, PEG(13) linker, paclitaxel conjugate)
- final purity (method not given) ([1]; conjugation step, TFA): 98%

Substance: Pv-YIYGSFR-PEG(13)-10Ca-PXL x TFA
- final purity (method not given) ([1]; conjugation step, TFA, run 1): >95%
- final purity (method not given) ([1]; conjugation step, TFA, run 2): 91%
- final purity (method not given) ([1]; conjugation step, TFA, run 3): 95%

Substance: Z-YIYGSFK(B)-OH
- final purity (method not given) [1, 6]: >95%
- isolated yield [1, 6]: 58.4%
- isolated mass [5]: an average 162 mg
